Laboratory results: the supplement of paper PMC10849652
The list shows a part of the results.

Amino acid sequences for entries named in this document (tags omitted). A change or cut given only in a name is not applied to a line headed by its entry.
UniProt P53396: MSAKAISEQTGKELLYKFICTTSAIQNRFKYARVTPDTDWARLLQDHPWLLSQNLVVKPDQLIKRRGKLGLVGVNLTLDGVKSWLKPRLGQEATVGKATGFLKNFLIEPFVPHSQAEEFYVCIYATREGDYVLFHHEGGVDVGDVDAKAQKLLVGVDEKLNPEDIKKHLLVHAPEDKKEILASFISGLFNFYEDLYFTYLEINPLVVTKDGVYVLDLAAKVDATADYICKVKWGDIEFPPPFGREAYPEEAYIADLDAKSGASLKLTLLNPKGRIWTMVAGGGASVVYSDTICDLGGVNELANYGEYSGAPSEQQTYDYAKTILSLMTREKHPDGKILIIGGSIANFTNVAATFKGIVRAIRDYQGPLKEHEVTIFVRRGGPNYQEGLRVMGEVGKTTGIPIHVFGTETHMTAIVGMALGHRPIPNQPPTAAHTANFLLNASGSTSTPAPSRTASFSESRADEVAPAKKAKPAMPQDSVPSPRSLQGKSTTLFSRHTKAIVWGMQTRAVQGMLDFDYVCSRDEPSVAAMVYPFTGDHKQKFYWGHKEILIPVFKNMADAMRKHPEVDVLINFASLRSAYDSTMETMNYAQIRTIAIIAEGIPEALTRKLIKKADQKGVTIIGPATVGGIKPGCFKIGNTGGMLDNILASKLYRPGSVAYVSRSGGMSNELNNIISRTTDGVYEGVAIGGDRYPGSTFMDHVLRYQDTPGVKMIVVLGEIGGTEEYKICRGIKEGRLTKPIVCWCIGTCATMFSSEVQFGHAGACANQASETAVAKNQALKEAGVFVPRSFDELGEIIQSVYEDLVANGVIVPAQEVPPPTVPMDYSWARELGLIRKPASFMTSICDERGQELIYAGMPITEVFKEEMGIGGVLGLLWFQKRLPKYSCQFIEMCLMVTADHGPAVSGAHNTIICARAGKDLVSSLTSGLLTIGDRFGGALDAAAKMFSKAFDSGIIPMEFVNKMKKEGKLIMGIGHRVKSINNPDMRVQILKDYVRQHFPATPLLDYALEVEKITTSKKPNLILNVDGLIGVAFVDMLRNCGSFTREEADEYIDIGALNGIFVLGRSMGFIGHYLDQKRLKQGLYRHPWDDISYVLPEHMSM
UniProt Q9NRK6: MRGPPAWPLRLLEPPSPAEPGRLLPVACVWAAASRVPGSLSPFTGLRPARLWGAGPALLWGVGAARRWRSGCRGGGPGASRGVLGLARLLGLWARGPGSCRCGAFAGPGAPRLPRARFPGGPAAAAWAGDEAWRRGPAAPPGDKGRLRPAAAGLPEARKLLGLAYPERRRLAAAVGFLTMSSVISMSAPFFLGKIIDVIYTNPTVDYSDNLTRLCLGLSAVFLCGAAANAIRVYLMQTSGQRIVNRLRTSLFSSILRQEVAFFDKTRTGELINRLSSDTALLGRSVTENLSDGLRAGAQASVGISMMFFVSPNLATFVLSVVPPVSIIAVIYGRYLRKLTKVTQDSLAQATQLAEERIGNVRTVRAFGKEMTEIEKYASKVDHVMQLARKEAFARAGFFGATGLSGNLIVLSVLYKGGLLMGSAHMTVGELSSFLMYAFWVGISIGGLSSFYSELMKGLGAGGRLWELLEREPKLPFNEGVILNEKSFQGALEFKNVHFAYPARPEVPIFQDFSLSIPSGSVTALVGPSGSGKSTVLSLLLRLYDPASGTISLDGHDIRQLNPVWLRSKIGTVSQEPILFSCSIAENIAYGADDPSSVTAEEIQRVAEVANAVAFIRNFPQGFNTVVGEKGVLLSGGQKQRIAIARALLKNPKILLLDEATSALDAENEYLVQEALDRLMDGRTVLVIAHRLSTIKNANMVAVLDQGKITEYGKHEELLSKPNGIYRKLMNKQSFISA
UniProt Q9NYB9: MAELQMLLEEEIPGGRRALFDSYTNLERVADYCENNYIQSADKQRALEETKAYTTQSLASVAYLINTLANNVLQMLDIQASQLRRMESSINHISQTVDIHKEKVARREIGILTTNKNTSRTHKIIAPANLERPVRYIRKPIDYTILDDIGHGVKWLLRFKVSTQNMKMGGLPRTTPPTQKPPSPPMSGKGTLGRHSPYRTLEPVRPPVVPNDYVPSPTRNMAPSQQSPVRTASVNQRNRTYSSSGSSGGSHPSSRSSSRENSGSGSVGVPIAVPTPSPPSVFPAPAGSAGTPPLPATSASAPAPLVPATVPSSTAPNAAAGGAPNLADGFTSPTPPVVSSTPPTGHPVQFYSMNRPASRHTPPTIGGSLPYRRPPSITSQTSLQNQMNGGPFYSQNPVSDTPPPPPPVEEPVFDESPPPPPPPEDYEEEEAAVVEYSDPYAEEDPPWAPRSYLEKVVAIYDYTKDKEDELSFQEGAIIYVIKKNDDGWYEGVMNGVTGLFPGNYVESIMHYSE
UniProt Q9BR61: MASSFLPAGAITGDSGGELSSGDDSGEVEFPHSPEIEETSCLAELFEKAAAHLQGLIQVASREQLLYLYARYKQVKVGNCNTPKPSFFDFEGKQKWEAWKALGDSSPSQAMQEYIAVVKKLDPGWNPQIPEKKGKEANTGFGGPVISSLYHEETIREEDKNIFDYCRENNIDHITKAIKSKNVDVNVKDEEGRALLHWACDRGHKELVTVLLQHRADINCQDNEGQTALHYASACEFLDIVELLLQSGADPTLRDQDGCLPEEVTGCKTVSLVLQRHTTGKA
UniProt Q9BTE6: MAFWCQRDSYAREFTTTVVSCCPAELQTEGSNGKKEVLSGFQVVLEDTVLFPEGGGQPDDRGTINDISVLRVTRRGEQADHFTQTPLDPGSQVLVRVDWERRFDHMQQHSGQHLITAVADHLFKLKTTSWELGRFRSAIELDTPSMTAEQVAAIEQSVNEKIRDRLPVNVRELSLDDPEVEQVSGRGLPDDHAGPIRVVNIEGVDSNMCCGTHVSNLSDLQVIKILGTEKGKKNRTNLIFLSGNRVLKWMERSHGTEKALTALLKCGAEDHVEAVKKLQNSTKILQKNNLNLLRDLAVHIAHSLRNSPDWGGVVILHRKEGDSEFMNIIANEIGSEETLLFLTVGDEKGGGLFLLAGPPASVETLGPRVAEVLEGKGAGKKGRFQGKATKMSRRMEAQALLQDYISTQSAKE
UniProt P49748: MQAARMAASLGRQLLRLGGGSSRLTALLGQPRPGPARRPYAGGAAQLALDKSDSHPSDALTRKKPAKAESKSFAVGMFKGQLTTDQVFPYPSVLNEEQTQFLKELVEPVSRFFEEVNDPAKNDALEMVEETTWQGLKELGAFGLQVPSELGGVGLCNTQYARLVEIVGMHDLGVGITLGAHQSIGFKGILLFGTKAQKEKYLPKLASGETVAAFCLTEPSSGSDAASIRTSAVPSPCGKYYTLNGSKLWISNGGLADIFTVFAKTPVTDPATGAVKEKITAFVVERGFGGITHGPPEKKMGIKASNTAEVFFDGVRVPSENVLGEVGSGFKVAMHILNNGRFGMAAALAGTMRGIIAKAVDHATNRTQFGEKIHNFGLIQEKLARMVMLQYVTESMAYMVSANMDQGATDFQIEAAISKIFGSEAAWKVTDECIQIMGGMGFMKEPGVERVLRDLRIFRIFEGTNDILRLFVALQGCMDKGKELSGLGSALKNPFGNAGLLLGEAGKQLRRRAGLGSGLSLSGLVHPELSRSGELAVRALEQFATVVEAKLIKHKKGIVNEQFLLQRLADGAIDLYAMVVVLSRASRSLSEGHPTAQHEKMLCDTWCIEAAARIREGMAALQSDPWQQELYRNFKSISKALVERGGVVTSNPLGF
UniProt Q9UG63: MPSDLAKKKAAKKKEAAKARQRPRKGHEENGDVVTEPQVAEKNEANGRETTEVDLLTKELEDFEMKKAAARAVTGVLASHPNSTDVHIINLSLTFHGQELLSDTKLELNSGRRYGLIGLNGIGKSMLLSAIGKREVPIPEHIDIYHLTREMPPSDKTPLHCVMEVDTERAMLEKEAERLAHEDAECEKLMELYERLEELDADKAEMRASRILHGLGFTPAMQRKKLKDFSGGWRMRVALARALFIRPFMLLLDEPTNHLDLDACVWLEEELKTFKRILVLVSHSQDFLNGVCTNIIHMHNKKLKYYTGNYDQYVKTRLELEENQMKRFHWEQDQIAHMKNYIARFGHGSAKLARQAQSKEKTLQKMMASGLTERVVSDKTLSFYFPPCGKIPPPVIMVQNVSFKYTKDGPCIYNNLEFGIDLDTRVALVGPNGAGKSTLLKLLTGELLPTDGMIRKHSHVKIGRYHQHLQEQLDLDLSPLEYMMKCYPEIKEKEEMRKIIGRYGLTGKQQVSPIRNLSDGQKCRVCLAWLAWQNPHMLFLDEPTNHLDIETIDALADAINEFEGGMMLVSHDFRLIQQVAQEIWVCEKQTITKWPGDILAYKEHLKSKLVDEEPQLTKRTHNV
UniProt Q9UKV3: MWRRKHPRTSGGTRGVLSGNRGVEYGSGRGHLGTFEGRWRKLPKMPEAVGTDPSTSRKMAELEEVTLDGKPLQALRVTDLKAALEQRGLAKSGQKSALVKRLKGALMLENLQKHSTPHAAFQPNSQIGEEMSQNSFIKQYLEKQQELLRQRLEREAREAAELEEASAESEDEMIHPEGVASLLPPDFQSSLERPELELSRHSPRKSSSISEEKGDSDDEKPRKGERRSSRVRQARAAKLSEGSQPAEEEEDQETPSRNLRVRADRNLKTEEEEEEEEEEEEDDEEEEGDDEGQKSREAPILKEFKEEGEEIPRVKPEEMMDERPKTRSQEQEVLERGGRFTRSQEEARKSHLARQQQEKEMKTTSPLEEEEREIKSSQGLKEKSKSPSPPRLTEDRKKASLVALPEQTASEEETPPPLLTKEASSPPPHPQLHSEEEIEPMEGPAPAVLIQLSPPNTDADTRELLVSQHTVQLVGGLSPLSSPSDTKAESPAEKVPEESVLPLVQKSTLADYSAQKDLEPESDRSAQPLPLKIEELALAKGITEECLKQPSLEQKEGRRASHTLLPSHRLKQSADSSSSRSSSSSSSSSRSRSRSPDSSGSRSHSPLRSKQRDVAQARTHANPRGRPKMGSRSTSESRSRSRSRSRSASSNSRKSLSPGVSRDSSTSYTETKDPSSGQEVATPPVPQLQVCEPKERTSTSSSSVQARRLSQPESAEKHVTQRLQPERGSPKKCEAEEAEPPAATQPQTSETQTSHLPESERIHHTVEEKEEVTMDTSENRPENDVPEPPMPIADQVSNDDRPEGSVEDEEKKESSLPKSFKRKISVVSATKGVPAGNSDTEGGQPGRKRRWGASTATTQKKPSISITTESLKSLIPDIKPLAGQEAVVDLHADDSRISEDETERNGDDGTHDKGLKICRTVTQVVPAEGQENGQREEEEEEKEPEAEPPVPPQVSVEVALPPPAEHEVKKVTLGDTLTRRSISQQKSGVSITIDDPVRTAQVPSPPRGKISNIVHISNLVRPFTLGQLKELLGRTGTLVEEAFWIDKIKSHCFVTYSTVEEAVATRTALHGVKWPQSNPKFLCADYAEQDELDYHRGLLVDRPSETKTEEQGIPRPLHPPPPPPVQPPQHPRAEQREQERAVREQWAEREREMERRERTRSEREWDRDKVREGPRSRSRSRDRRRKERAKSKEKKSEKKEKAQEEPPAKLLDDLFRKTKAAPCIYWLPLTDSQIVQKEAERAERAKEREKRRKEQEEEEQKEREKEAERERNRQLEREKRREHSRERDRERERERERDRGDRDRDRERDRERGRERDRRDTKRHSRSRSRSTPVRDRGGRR
UniProt Q15057: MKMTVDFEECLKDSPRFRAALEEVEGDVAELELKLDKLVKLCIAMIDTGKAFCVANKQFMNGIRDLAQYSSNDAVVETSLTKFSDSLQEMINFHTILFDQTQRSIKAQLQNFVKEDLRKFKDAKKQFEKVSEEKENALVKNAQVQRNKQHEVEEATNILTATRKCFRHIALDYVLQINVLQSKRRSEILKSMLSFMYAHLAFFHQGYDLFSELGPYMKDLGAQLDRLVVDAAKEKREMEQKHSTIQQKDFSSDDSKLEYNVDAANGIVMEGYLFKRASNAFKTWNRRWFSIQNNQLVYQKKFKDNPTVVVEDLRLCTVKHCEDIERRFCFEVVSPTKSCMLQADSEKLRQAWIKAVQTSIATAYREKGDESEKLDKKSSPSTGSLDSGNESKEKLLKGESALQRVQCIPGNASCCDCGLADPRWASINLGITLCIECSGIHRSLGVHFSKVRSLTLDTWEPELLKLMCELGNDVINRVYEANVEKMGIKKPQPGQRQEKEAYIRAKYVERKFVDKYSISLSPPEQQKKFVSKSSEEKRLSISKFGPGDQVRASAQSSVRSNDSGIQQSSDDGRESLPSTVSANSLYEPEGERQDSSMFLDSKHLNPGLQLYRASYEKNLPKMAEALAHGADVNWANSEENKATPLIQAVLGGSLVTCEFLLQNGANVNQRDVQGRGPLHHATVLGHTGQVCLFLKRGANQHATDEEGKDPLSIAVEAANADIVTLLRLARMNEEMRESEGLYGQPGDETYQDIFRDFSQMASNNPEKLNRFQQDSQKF

Key:
Assay in all cases: log2 fold change, soluble protein after heating vs DMSO (PISA); higher = thermal stabilisation; K562 lysate, 10 uM; active = over 0.2 and 3.5 SD of the protein, either way, in both replicates (recomputed)
lapatinib = compound: CS(=O)(=O)CCNCc1ccc(-c2ccc3ncnc(Nc4ccc(OCc5cccc(F)c5)c(Cl)c4)c3c2)o1 [lapatinib]
Method in brief: (§1)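 A 30 min treatment with 10 μM compound was applied to crude K562 extract at 1 mg/mL protein in PBS pH 7.4 with 1 mM MgCl2. Heating for 3 min spanned 48°C-58°C, after which aliquots were pooled, adjusted to 0.5% NP-40 at 4°C and spun at 21,000xg for 90 min. TMTpro 16plex LC-MS/MS of the supernatant, with channel sums equalised, gave values recorded as log-two fold change in thermal stability against solvent controls, from duplicates.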

pictilisib = compound: CS(=O)(=O)N1CCN(Cc2cc3nc(-c4cccc5[nH]ncc45)nc(N4CCOCC4)c3s2)CC1 [pictilisib]
Method in brief: as §1

crizotinib = compound: C[C@@H](Oc1cc(-c2cnn(C3CCNCC3)c2)cnc1N)c1c(Cl)ccc(F)c1Cl [crizotinib]
Method in brief: as §1

[1] = compound: C[C@H](C1=CC=C(C=C1)C(=O)NC2=C3C=CNC3=NC=C2)N
Method in brief: as §1

duvelisib = compound: C[C@H](Nc1ncnc2nc[nH]c12)c1cc2cccc(Cl)c2c(=O)n1-c1ccccc1 [duvelisib]
Method in brief: as §1

gandotinib = compound: Cc1cc(Nc2cc(CN3CCOCC3)c3nc(C)c(Cc4ccc(Cl)cc4F)n3n2)n[nH]1 [gandotinib]
Method in brief: as §1

tozasertib = compound: Cc1cc(Nc2cc(N3CCN(C)CC3)nc(Sc3ccc(NC(=O)C4CC4)cc3)n2)n[nH]1 [tozasertib]
Method in brief: as §1

doramapimod = compound: Cc1ccc(-n2nc(C(C)(C)C)cc2NC(=O)Nc2ccc(OCCN3CCOCC3)c3ccccc23)cc1 [doramapimod]
Method in brief: as §1

bafetinib = compound: Cc1ccc(NC(=O)c2ccc(CN3CC[C@H](N(C)C)C3)c(C(F)(F)F)c2)cc1Nc1nccc(-c2cncnc2)n1 [bafetinib]
Method in brief: as §1

[2] = compound: Cc1cccc(CC(=O)N2CCc3c2ccc(-c2cn(C)c4ncnc(N)c24)c3F)n1
Method in brief: as §1

nilotinib = compound: Cc1cn(-c2cc(NC(=O)c3ccc(C)c(Nc4nccc(-c5cccnc5)n4)c3)cc(C(F)(F)F)c2)cn1 [nilotinib]
Method in brief: as §1

[3] = compound: Cc1nc(Nc2n[nH]c3c2CN(C(=O)N[C@H](CN(C)C)c2ccccc2)C3(C)C)c2sccc2n1
Method in brief: as §1

dasatinib = compound: Cc1nc(Nc2ncc(C(=O)Nc3c(C)cccc3Cl)s2)cc(N2CCN(CCO)CC2)n1 [dasatinib]
Method in brief: as §1

[4] = compound: Cc1ncc(-c2ccnc(Nc3ccc(S(C)(=O)=O)cc3)n2)n1C(C)C
Method in brief: as §1

[5] = compound: Cn1cc(-c2ccc3c(c2)CCN3C(=O)Cc2cccc(C(F)(F)F)c2)c2c(N)ncnc21
Method in brief: as §1

quisinostat = compound: Cn1cc(CNCC2CCN(c3ncc(C(=O)NO)cn3)CC2)c2ccccc21 [quisinostat]
Method in brief: as §1

tipifarnib = compound: Cn1cncc1[C@@](N)(c1ccc(Cl)cc1)c1ccc2c(c1)c(-c1cccc(Cl)c1)cc(=O)n2C [tipifarnib]
Method in brief: as §1

[6] = compound: NC(=O)Nc1cc(-c2cccc(F)c2)sc1C(=O)N[C@H]1CCCNC1
Method in brief: as §1

[7] = compound: NC(=O)c1cnc(N[C@@H]2CCCC[C@@H]2N)nc1Nc1cccc(-n2nccn2)c1
Method in brief: as §1

[8] = compound: NC1(c2ccc(-c3nc4ccn5c(=O)[nH]nc5c4cc3-c3ccccc3)cc2)CCC1
Method in brief: as §1

Measured: log2 fold change

AATF (UniProt Q9NY61)
inactive: lapatinib 0.055 | pictilisib -0.007 | crizotinib -0.037 | [1] -0.024 | duvelisib 0.018 | gandotinib 0.102 | tozasertib 0.033 | doramapimod 0.035 | bafetinib -0.094 | [2] 0.03 | nilotinib -0.002 | [3] 0.015 | dasatinib 0.022 | [4] 0.029 | [5] 0.038 | quisinostat 0.01 | tipifarnib -0.052 | [6] 0.021 | [7] 0.03 | [8] -0.011

ACLY (UniProt P53396)
inactive: lapatinib -0.011 | pictilisib -0.009 | crizotinib -0.005 | [1] -0.025 | duvelisib 0.012 | gandotinib 0.01 | tozasertib 0.003 | doramapimod 0.015 | bafetinib 0.008 | [2] 0.013 | nilotinib -0.005 | [3] -0.016 | dasatinib -0.026 | [4] -0.005 | [5] 0.021 | quisinostat 0.002 | tipifarnib 0.016 | [6] -0.004 | [7] 0.018 | [8] 0.014

ABCB10 (UniProt Q9NRK6)
inactive: lapatinib 0.063 | pictilisib -0.014 | crizotinib -0.018 | [1] -0.033 | duvelisib -0.028 | gandotinib 0.095 | tozasertib -0.005 | doramapimod 0.033 | bafetinib -0.011 | [2] 0.001 | nilotinib -0.007 | [3] 0.029 | dasatinib 0.037 | [4] -0.035 | [5] 0.005 | quisinostat 0.02 | tipifarnib 0.026 | [6] -0.007 | [7] -0.015 | [8] -0.006

AAK1, A0A096LP25
inactive: lapatinib -0.078 | pictilisib 0 | crizotinib 0.232 | [1] 0.349 | duvelisib -0.019 | gandotinib 0.316 | tozasertib 0.157 | doramapimod -0.037 | bafetinib 0.047 | [2] -0.076 | nilotinib -0.006 | [3] 0.347 | dasatinib 0.061 | [4] 0.374 | [5] 0.008 | quisinostat -0.034 | tipifarnib -0.136 | [6] 0.44 | [7] 0.104 | [8] -0.045

ABI2 (UniProt Q9NYB9)
inactive: lapatinib 0.014 | pictilisib 0 | crizotinib 0.036 | [1] 0.016 | duvelisib 0.02 | gandotinib -0.111 | tozasertib 0.024 | doramapimod -0.087 | bafetinib -0.004 | [2] -0.126 | nilotinib -0.04 | [3] -0.023 | dasatinib -0.02 | [4] 0.015 | [5] -0.02 | quisinostat 0.068 | tipifarnib 0.013 | [6] 0.023 | [7] 0.026 | [8] 0.019

ACBD6 (UniProt Q9BR61)
inactive: lapatinib -0.002 | pictilisib 0.01 | crizotinib -0.04 | [1] -0.036 | duvelisib 0.063 | gandotinib -0.01 | tozasertib -0.051 | doramapimod -0.024 | bafetinib -0.047 | [2] 0.006 | nilotinib -0.032 | [3] 0.007 | dasatinib 0.04 | [4] 0.012 | [5] 0.013 | quisinostat -0.017 | tipifarnib 0.013 | [6] -0.014 | [7] 0.06 | [8] -0.04

AARSD1 isoform 3 (UniProt Q9BTE6)
inactive: lapatinib 0.009 | pictilisib -0.025 | crizotinib 0.001 | [1] 0.049 | duvelisib 0.002 | gandotinib -0.122 | tozasertib 0.025 | doramapimod 0.022 | bafetinib -0.023 | [2] -0.009 | nilotinib 0.013 | [3] -0.002 | dasatinib -0.033 | [4] 0.022 | [5] 0.03 | quisinostat -0.013 | tipifarnib 0.001 | [6] 0.002 | [7] 0.044 | [8] 0.005

ACADVL isoform 3 (UniProt P49748)
inactive: lapatinib -0.095 | pictilisib 0.015 | crizotinib 0.002 | [1] -0.032 | duvelisib 0.103 | gandotinib 0.044 | tozasertib -0.015 | doramapimod -0.002 | bafetinib -0.009 | [2] 0.006 | nilotinib -0.013 | [3] 0.05 | dasatinib -0.007 | [4] -0.004 | [5] -0.042 | quisinostat 0.007 | tipifarnib 0.002 | [6] -0.048 | [7] -0.012 | [8] 0

ABCF2 isoform 2 (UniProt Q9UG63)
inactive: lapatinib -0.038 | pictilisib -0.005 | crizotinib -0.011 | [1] -0.001 | duvelisib 0.021 | gandotinib -0.097 | tozasertib 0.057 | doramapimod -0.002 | bafetinib -0.025 | [2] -0.024 | nilotinib 0.001 | [3] -0.001 | dasatinib -0.036 | [4] -0.024 | [5] 0.005 | quisinostat -0.022 | tipifarnib 0.002 | [6] 0.042 | [7] -0.002 | [8] -0.023

ACADSB (UniProt P45954)
inactive: lapatinib 0.064 | pictilisib -0.06 | crizotinib -0.062 | [1] 0.053 | duvelisib 0.065 | gandotinib -0.055 | tozasertib -0.047 | doramapimod 0.033 | bafetinib -0.003 | [2] -0.01 | nilotinib 0.023 | [3] -0.027 | dasatinib -0.161 | [4] 0.062 | [5] 0.077 | quisinostat -0.006 | tipifarnib -0.034 | [6] 0.029 | [7] -0.025 | [8] 0.036

AARS2 (UniProt Q5JTZ9)
inactive: lapatinib 0.007 | pictilisib 0.01 | crizotinib -0.046 | [1] 0.072 | duvelisib 0.012 | gandotinib -0.121 | tozasertib 0.039 | doramapimod 0.034 | bafetinib -0.041 | [2] 0.019 | nilotinib -0.046 | [3] 0.021 | dasatinib -0.018 | [4] -0.013 | [5] 0.062 | quisinostat -0.046 | tipifarnib 0.023 | [6] 0.053 | [7] 0.016 | [8] -0.05

ACAA2 (UniProt P42765)
inactive: lapatinib -0.039 | pictilisib -0.02 | crizotinib 0.018 | [1] 0.008 | duvelisib 0.013 | gandotinib 0.043 | tozasertib -0.05 | doramapimod 0.002 | bafetinib 0.019 | [2] 0.003 | nilotinib 0.025 | [3] -0.025 | dasatinib 0.005 | [4] 0.015 | [5] -0.026 | quisinostat 0.033 | tipifarnib 0.001 | [6] 0.001 | [7] 0.009 | [8] 0.019

ABRAXAS1 (UniProt Q6UWZ7)
inactive: lapatinib 0.027 | pictilisib 0.021 | crizotinib 0.055 | [1] -0.05 | duvelisib -0.017 | gandotinib 0.073 | tozasertib 0.137 | doramapimod 0.004 | bafetinib -0.053 | [2] -0.016 | nilotinib 0.071 | [3] -0.071 | dasatinib 0.059 | [4] 0.072 | [5] 0.005 | quisinostat 0.007 | tipifarnib 0.072 | [6] 0.032 | [7] 0.003 | [8] 0.029

ACIN1 isoform 5 (UniProt Q9UKV3)
inactive: lapatinib 0.012 | pictilisib -0.024 | crizotinib 0.034 | [1] 0.022 | duvelisib -0.002 | gandotinib -0.003 | tozasertib 0.003 | doramapimod 0.01 | bafetinib -0.013 | [2] 0.002 | nilotinib 0.017 | [3] -0.018 | dasatinib -0.012 | [4] 0.001 | [5] 0.008 | quisinostat 0.011 | tipifarnib 0 | [6] -0.063 | [7] 0.024 | [8] 0.01

ACAP2 (UniProt Q15057)
inactive: lapatinib -0.035 | pictilisib 0.004 | crizotinib 0.011 | [1] 0.032 | duvelisib 0.018 | gandotinib -0.085 | tozasertib -0.016 | doramapimod -0.011 | bafetinib -0.039 | [2] -0.024 | nilotinib 0.007 | [3] -0.01 | dasatinib 0.007 | [4] -0.006 | [5] -0.002 | quisinostat 0.009 | tipifarnib 0.008 | [6] -0.011 | [7] 0.017 | [8] 0.01
